The structures appear in SMILES notation. The list shows only some results of the screen, not a fair sample: it is rich in T/C values a quarter to a half above the control, in often repeated tests (any T/C) and in doses without a T/C. Other doses and runs of a compound stand elsewhere. T/C: endpoint of the treated group in % of that of the vehicle group. Some doses have a count of surviving animals in place of a T/C: the source files T/C as zero there, which appears to mark a toxic dose or a test without result, not a measured value. Some survivor counts are full or nearly so, which does not show that the dose was tolerated: the source hardly ever lists a survival T/C far under the control, and the zero likely stands for such cases as well. Counts of survivors are from the toxicity check (mostly the fifth day) where no day follows; animals may have died later. Schedule codes are those of the source, taken here to give the interval after Q, in days (D) or hours (H), and the number of doses after X. Some doses were run more than once; the results are listed from low to high. Some schedules carry Z or #; the key to these is not given. For survival time, this PubChem deposit counts one and a half times the control or more as active, and values a quarter to a half above the control carry no call in these data; other NCI protocols may use other cut-offs.

The assay has as its system L1210 leukemia ip in BDF1 mice, survival T/C. The assay is described as follows: NCI In Vivo Anticancer Drug Screen. Data for tumor model L1210 Leukemia (intraperitoneal) in B6D2F1 (BDF1) mice. The following applies: T/C endpoint: mean survival time, higher T/C = longer survival.
Setting [1] is: dose: 100.0 mg/kg/injection, schedule: Q01DX009 (ip), vehicle: saline.
Where [2] appears, read: dose: 200.0 mg/kg/injection, schedule: Q01DX009 (ip), vehicle: saline.
Setting [3] is: dose: 400.0 mg/kg/injection, schedule: Q01DX001 (ip), vehicle: saline.
Setting [4] is: dose: 50.0 mg/kg/injection, schedule: Q01DX009 (ip), vehicle: other.
Where [5] appears, read: dose: 200.0 mg/kg/injection, schedule: Q04DX003 (ip), vehicle: Klucel (hydroxypropylcellulose) (HPC).
The mark [6] stands for this setting: dose: 400.0 mg/kg/injection, schedule: Q04DX003 (ip), vehicle: Klucel (hydroxypropylcellulose) (HPC).
Where [7] appears, read: dose: 400.0 mg/kg/injection, schedule: Q01DX009 (ip), vehicle: saline with Tween-80.
Where [8] appears, read: dose: 400.0 mg/kg/injection, schedule: Q04DX003 (ip), vehicle: saline with Tween-80.
The mark [9] stands for this setting: dose: 25.0 mg/kg/injection, schedule: Q01DX009 (ip), vehicle: saline with Tween-80.

As for `C=CC[P+](C)(c1ccccc1)c1ccccc1`, the survivor count reads like this: (dose: 6.25 mg/kg/injection, schedule: Q01DX009 (ip), vehicle: saline) 1 of 3; (dose: 12.5 mg/kg/injection, schedule: Q01DX009 (ip), vehicle: saline) 0 of 3; (dose: 25.0 mg/kg/injection, schedule: Q01DX009 (ip), vehicle: saline) 0 of 3; (dose: 50.0 mg/kg/injection, schedule: Q01DX009 (ip), vehicle: saline) 0 of 3; under setting [1], 0 of 3; under setting [2], 0 of 3.

As for `Clc1ccc(C(c2ccc(Cl)cc2)C(Cl)(Cl)Cl)cc1`, the survivor count is, setting by setting: (dose: 100.0 mg/kg/injection, schedule: Q01DX009 (ip), vehicle: Klucel (hydroxypropylcellulose) (HPC)) 5 of 6 and 6 of 6; (dose: 100.0 mg/kg/injection, schedule: Q01DX009 (ip), vehicle: acetone) 6 of 6; (dose: 200.0 mg/kg/injection, schedule: Q01DX009 (ip), vehicle: Klucel (hydroxypropylcellulose) (HPC)) 4 of 6; under setting [3], 6 of 6; (dose: 400.0 mg/kg/injection, schedule: Q01DX009 (ip), vehicle: Klucel (hydroxypropylcellulose) (HPC)) 3 of 6; (dose: 400.0 mg/kg/injection, schedule: Q01DX009 (ip), vehicle: acetone) 6 of 6. The survivor count (dose: 600.0 mg/kg/injection, schedule: Q01DX001 (ip), vehicle: saline) is 6 of 6.

Turning to `COc1cc2c(cc1OC)C(C)=NCC2`, the survivor count by setting is: under setting [1], 2 of 6; (dose: 200.0 mg/kg/injection, schedule: Q01DX001 (ip), vehicle: saline) 0 of 6.

In the case of `Oc1ccc(I)c2cccnc12`, the survivor count is given as 3 of 6 under setting [2] and 0 of 6 (dose: 400.0 mg/kg/injection, schedule: Q01DX009 (ip), vehicle: saline).

Take `FC(F)(F)c1nc2nc(Cl)c(Cl)nc2[nH]1`: the T/C runs as follows: under setting [4], 128 % of control; (dose: 66.0 mg/kg/injection, schedule: Q04DX003 (ip), vehicle: other) 149 % of control; (dose: 66.0 mg/kg/injection, schedule: Q04DX003 (ip), vehicle: saline with Tween-80) 129 % of control. Further, the survivor count under setting [4] is recorded as 4 of 6; the survivor count (dose: 75.0 mg/kg/injection, schedule: Q01DX009 (ip), vehicle: other) is on record as 1 of 6; the survivor count (dose: 100.0 mg/kg/injection, schedule: Q01DX009 (ip), vehicle: other) is recorded as 1 of 6; the survivor count (dose: 150.0 mg/kg/injection, schedule: Q04DX003 (ip), vehicle: other) is on record as 3 of 6; the survivor count (dose: 150.0 mg/kg/injection, schedule: Q04DX003 (ip), vehicle: saline sonified) is 3 of 6; the survivor count (dose: 150.0 mg/kg/injection, schedule: Q04DX003 (ip), vehicle: saline with Tween-80) is 0 of 6. Besides, the survivor count by setting is: (dose: 200.0 mg/kg/injection, schedule: Q01DX001 (ip), vehicle: saline with Tween-80) 1 of 6; under setting [5], 1 of 6; under setting [6], 0 of 6.

For `c1ccc([Si](OO[Si](c2ccccc2)(c2ccccc2)c2ccccc2)(c2ccccc2)c2ccccc2)cc1`, the survivor count under setting [7] was 6 of 6.

In the case of `CN(C)CCCn1c2c(c3ccccc31)CCCCCC2`, the survivor count under setting [1] is listed as 0 of 6.

As for `ClC1CCC[N-]C1.ClC1CCC[N-]C1.[Cl][Pt+2][Cl]` (stereo not drawn), under setting [8], the survivor count is 5 of 6.

With `CC(=O)Oc1ccc2c(C)cc(=O)oc2c1`, the survivor count under setting [3] is listed as 2 of 4.

With `C[n+]1cccc(C#N)c1`, the survivor count (dose: 300.0 mg/kg/injection, schedule: Q01DX001 (ip), vehicle: saline) is 3 of 6.

As to `Cc1cc(N2C(=O)CSC2=S)ccc1Br`, the survivor count under setting [7] is 4 of 6.

Consider `C#CC(=O)OCC#CCOC(=O)C#C`, for which the survivor count runs as follows: (dose: 12.5 mg/kg/injection, schedule: Q01DX009 (ip), vehicle: saline with Tween-80) 5 of 6; under setting [9], 0 of 6; (dose: 25.0 mg/kg/injection, schedule: Q04DX002 (ip), vehicle: saline with Tween-80) 1 of 3; (dose: 50.0 mg/kg/injection, schedule: Q04DX002 (ip), vehicle: saline with Tween-80) 1 of 3; (dose: 100.0 mg/kg/injection, schedule: Q04DX002 (ip), vehicle: saline with Tween-80) 0 of 3 and 1 of 3; (dose: 200.0 mg/kg/injection, schedule: Q04DX002 (ip), vehicle: saline with Tween-80) 0 of 3. Where the note is “dose: 400.0 mg/kg/injection, schedule: Q04DX002 (ip), vehicle: saline with Tween-80”, the survivor count is given as 0 of 3.

Turning to `CCCCOP(=S)(OCCCC)[S][Hg][c]1ccco1`, the survivor count was 1 of 3 and 2 of 3 (dose: 100.0 mg/kg/injection, schedule: Q04DX002 (ip), vehicle: alcohol); 2 of 3 (dose: 200.0 mg/kg/injection, schedule: Q04DX002 (ip), vehicle: alcohol); 0 of 3 (dose: 400.0 mg/kg/injection, schedule: Q04DX002 (ip), vehicle: alcohol).

For the molecule `Cc1ccc(NC(=O)NC(C)C)c(C)c1`, the survivor count was 6 of 6 (dose: 100.0 mg/kg/injection, schedule: Q04DX003 (ip), vehicle: saline with Tween-80) and 5 of 6 (dose: 200.0 mg/kg/injection, schedule: Q04DX003 (ip), vehicle: saline with Tween-80).

As to `CSc1nc(N)nc2nc(C)cc(C)c12`, the survivor count (dose: 200.0 mg/kg/injection, schedule: Q01DX Z (ip), vehicle: methylcellulose (MC)) is 3 of 6.

As for `[B-][N+]12CC[N+]([B-])(CC1)CC2`, the survivor count was 0 of 6 (dose: 0.5 mg/kg/injection, schedule: Q04DX003 (ip), vehicle: saline); 3 of 6 (dose: 1.0 mg/kg/injection, schedule: Q04DX003 (ip), vehicle: saline); 0 of 6 (dose: 2.0 mg/kg/injection, schedule: Q04DX003 (ip), vehicle: saline); 0 of 6 (dose: 6.25 mg/kg/injection, schedule: Q04DX003 (ip), vehicle: Klucel (hydroxypropylcellulose) (HPC)); 0 of 6 (dose: 12.5 mg/kg/injection, schedule: Q04DX003 (ip), vehicle: Klucel (hydroxypropylcellulose) (HPC)); 0 of 6 (dose: 25.0 mg/kg/injection, schedule: Q04DX003 (ip), vehicle: Klucel (hydroxypropylcellulose) (HPC)). The survivor count (dose: 100.0 mg/kg/injection, schedule: Q04DX003 (ip), vehicle: Klucel (hydroxypropylcellulose) (HPC)) is 0 of 6; the survivor count under setting [5] is on record as 0 of 6; the survivor count under setting [6] is on record as 0 of 6.

With `c1ccc(N=N/C(=N/Nc2ccccc2)c2ccccc2)cc1`, the survivor count is 6 of 6 under setting [9]; 0 of 6 (dose: 100.0 mg/kg/injection, schedule: Q01DX009 (ip), vehicle: saline with Tween-80); 3 of 6 (dose: 200.0 mg/kg/injection, schedule: Q01DX009 (ip), vehicle: saline with Tween-80); 0 of 6 under setting [7].

For the molecule `CNC1C(O)C(OC)OC2COC(c3ccccc3)OC21` (stereo not drawn), the survivor count under setting [8] is given as 4 of 6.

As to `CC(=O)OC1C=CC(=O)OC1C1OC1C` (stereo not drawn), where the note is “dose: 45.0 mg/kg/injection, schedule: Q01DX Z (ip), vehicle: saline”, the survivor count is on record as 2 of 6.

For the origin of these results see PubChem BioAssay AID248 (DTP/NCI, 2004).
